# Experimental data taken from the supplement of paper PMC12542422.
# Structures can show the parent of a compound that is named as a salt. ± gives the standard deviation of the averaged measurements. Some of the results follow. Values are raw readings; no control value is given beside them.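 Ribosome-assembly readouts in HeLa cells were imaged via ENP1 staining, with or without export block, or inducible tagged ribosomal protein reporters. Machine learning classified per-cell signal location versus solvent (DMSO) controls. Hits surpassed the DMSO false-positive mean by five standard deviations and were visually confirmed; three biological replicates.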
# System: HeLa RPS2-YFP reporter
# Assay: fraction of reporter-positive cells with nuclear (nucleolar or nucleolar/nucleoplasmic) RPS2-YFP (MainHitrate); higher = more cells with nucleolar/nuclear readout signal (for ENP1 -LMB: less RNAPI inhibition; for +LMB ENP1 and RP reporters: stronger nuclear/nucleolar retention, i.e. ribosome biogenesis defect)
# Conditions: concentration: 1 µM; treatment time: 6 h
row,SMILES,fraction of reporter-positive cells with nuclear
1,O=C(O)/C=C/c1ccc(Cn2ccnc2)cc1 [Ozagrel HCl],0.118 ± 0.087
2,Nc1[nH]cnc2ncnc1-2 [Adenine],0.0985 ± 0.051
3,O=C(O)Cc1ccccc1Nc1c(Cl)cccc1Cl [Diclofenac Diethylamine],0.113 ± 0.081
4,"C[C@H]1[C@H](NC(=O)/C(=N\OC(C)(C)C(=O)O)c2csc(N)n2)C(=O)N1S(=O)(=O)O [Aztreonam (Azactam, Cayston)]",0.102 ± 0.09
5,O=C(Nc1c(Cl)cncc1Cl)c1ccc(OC(F)F)c(OCC2CC2)c1 [Roflumilast (Daxas)],0.0965 ± 0.077
6,CCN(CC)C(=S)SSC(=S)N(CC)CC [Disulfiram (Antabuse)],0.189 ± 0.22
7,S=c1[nH]cnc2nc[nH]c12 [Mercaptopurine],0.0806 ± 0.078
8,Nc1nc2c(ncn2COCCO)c(=O)[nH]1 [Acyclovir (Aciclovir)],0.102 ± 0.075
9,C=C1c2c(Cl)ccc(O)c2C(=O)C2=C(O)[C@]3(O)C(=O)C(C(N)=O)=C(O)[C@@H](N(C)C)[C@@H]3[C@@H](O)[C@H]12.O=C(O)c1cc(S(=O)(=O)O)ccc1O [Meclocycline Sulfosalicylate],0.14 ± 0.15
10,CC[C@H](C)C(=O)O[C@H]1C[C@@H](C)C=C2C=C[C@H](C)[C@H](CC[C@@H]3C[C@@H](O)CC(=O)O3)[C@H]21 [Lovastatin (Mevacor)],0.136 ± 0.082
11,O=P(O)(O)C(O)(Cc1cccnc1)P(=O)(O)O [Risedronate sodium],0.104 ± 0.049
12,Nc1ccc(O)c(C(=O)O)c1 [Mesalamine (Lialda)],0.113 ± 0.094
13,O=C(O)c1cc(-c2ccccc2)nc2ccccc12 [Cinchophen],0.113 ± 0.11
14,CCCCC(=O)O[C@]1(C(=O)CO)[C@@H](C)C[C@H]2[C@@H]3CCC4=CC(=O)C=C[C@]4(C)[C@@]3(F)[C@@H](O)C[C@@]21C [Betamethasone valerate (Betnovate)],0.14 ± 0.12
15,O=c1oc2cc(O)ccc2s1 [Tioxolone],0.107 ± 0.083
16,CN1C(C(=O)Nc2ccccn2)=C(O)c2ccccc2S1(=O)=O [Piroxicam (Feldene)],0.113 ± 0.077
17,CC1(C)S[C@@H]2[C@H](NC(=O)[C@H](NC(=O)N3CCNC3=O)c3ccccc3)C(=O)N2[C@H]1C(=O)O [Azlocillin sodium salt],0.141 ± 0.1
18,CN1CCC[C@H]1c1cccnc1 [Nicotine Ditartrate],0.155 ± 0.16
19,"CO[C@H]1/C=C/O[C@@]2(C)Oc3c(C)c(O)c4c(O)c(c(/C=N/N5CCN(C)CC5)c(O)c4c3C2=O)NC(=O)/C(C)=C\C=C\[C@H](C)[C@H](O)[C@@H](C)[C@@H](O)[C@@H](C)[C@H](OC(C)=O)[C@@H]1C [Rifampin (Rifadin, Rimactane)]",0.115 ± 0.075
20,CCOC(=O)C1=C[C@@H](OC(CC)CC)[C@H](NC(C)=O)[C@@H](N)C1 [Oseltamivir phosphate (Tamiflu)],0.107 ± 0.058

# A second format for some results above:
row	SMILES	fraction of reporter-positive cells with nuclear
10	CC[C@H](C)C(=O)O[C@H]1C[C@@H](C)C=C2C=C[C@H](C)[C@H](CC[C@@H]3C[C@@H](O)CC(=O)O3)[C@H]21 [Lovastatin (Mevacor)]	0.136 ± 0.082
11	O=P(O)(O)C(O)(Cc1cccnc1)P(=O)(O)O [Risedronate sodium]	0.104 ± 0.049

# Additional entries follow:

row,SMILES,fraction of reporter-positive cells with nuclear
1,O=S(=O)(O)NC1CCCCC1 [Cyclamic  acid],0.154 ± 0.12
2,CS(=O)(=O)CCNCc1ccc(-c2ccc3ncnc(Nc4ccc(OCc5cccc(F)c5)c(Cl)c4)c3c2)o1 [Lapatinib],0.106 ± 0.1
3,Nc1ccc(/N=N/c2ccccc2)c(N)n1 [Phenazopyridine HCl],0.148 ± 0.089
4,COC(c1ccccc1)(c1ccccc1)[C@H](Oc1nc(C)cc(C)n1)C(=O)O [Ambrisentan],0.0921 ± 0.076
5,Nc1[nH]cnc2ncnc1-2 [Adenine sulfate],0.139 ± 0.069
6,CC(C(=O)O)c1cccc(Oc2ccccc2)c1 (stereo not given) [Fenoprofen calcium],0.0933 ± 0.077
7,O=C(O)C1(C(=O)O)CCC1.[NH2-].[NH2-].[Pt+2] [Carboplatin],0.119 ± 0.069
8,CC[C@@H](CO)NCCN[C@@H](CC)CO [Ethambutol HCl],0.121 ± 0.1
9,CCCCOc1cc(C(=O)OCCN(CC)CC)ccc1N [Oxybuprocaine HCl],0.133 ± 0.11
10,O=C(O)c1ccccc1 [Benzoic acid],0.118 ± 0.072
11,Cc1c(Cl)cccc1Nc1ccccc1C(=O)O [Tolfenamic acid],0.0837 ± 0.056
12,COc1ccc(CNc2nc(N3CCC[C@H]3CO)ncc2C(=O)NCc2ncccn2)cc1Cl [Avanafil],0.153 ± 0.13
13,CN(C(=O)CN(CCO)CC(=O)N(C)C(C)(C)Cc1ccccc1)C(C)(C)Cc1ccccc1 [Oxethazaine],0.18 ± 0.16
14,CCN(Cc1ccncc1)C(=O)C(CO)c1ccccc1 (stereo not given) [Tropicamide],0.097 ± 0.054
15,CCN1CCN(c2cc3c(cc2F)c(=O)c(C(=O)O)cn3C2CC2)CC1 [Enrofloxacin],0.126 ± 0.097
16,CC(C)(O/N=C(\C(=O)N[C@@H]1C(=O)N2C(C(=O)[O-])=C(C[n+]3ccccc3)CS[C@H]12)c1csc(N)n1)C(=O)O [Ceftazidime Pentahydrate],0.14 ± 0.14
17,C[C@@H](O)[C@H]1C(=O)N2C(C(=O)O)=C(S[C@@H]3CN[C@H](C(=O)N(C)C)C3)[C@H](C)[C@H]12 [Meropenem],0.112 ± 0.066
18,CCN(CC)CC#CCOC(=O)C(O)(c1ccccc1)C1CCCCC1 (stereo not given) [Oxybutynin (Ditropan)],0.113 ± 0.088
19,NC(CO)C(=O)NNCc1ccc(O)c(O)c1O (stereo not given) [Benserazide],0.113 ± 0.056
20,NS(=O)(=O)c1cc(Cl)c(Cl)c(S(N)(=O)=O)c1 [Dichlorphenamide (Diclofenamide)],0.106 ± 0.058
